# According to the supplement of paper PMC8728848:
# Some of the results follow.
# B1: SfaEH (Escherichia coli), Q1RDG5 (protein)
# chain: LLCRNNQTGQVFNSGDTSFRVNVSPVVQYDKSISVLDLSQLVSCQNEDSTGQNYDYLKILKGSGFSPALDTKTYGRLDFTSRPTGYARQLPLQFDLQVTEAFYQYGVWKPFPAKLYLYPAPGVFGKVINNGDLLATLYVNKFSTKGQEAGERNFTWRFYATNDVYIQTGTCRVSSNNVKVDLPSYPGGPVTVPLTVRCDQTQSVSYTLSGPVTGSGNTVFANTAASGSGGVGIQLSDNVGPVPAGQPRSLGQVGSSPVSLGLKASYALTGQASPTPGAVQSVINVTFSYN
# Key:
# Assay in all cases: glycan array binding signal (z-score within array); higher = stronger binding
# Settings in all cases: glycan notation: IUPAC condensed, linker removed
# [1] = target: Gal(b1-4)GlcNAc(b1-3)Gal(b1-4)GlcNAc(b1-3)Gal(b1-4)GlcNAc(b1-3)Gal(b1-4)GlcNAc(b1-2)Man(a1-3)[Gal(b1-4)GlcNAc(b1-3)Gal(b1-4)GlcNAc(b1-3)Gal(b1-4)GlcNAc(b1-3)Gal(b1-4)GlcNAc(b1-2)Man(a1-6)]Man(b1-4)GlcNAc(b1-4)[Fuc(a1-6)]GlcNAc
# Procedure, shortened: (§1)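 Arrays were curated from the Consortium for Functional Glycomics database, 3228 in total, and kept only where the protein sequence was available. Binding is expressed as a within-array Z-score. This score was averaged across arrays of the same protein sequence at different concentrations or buffers and across linkers, and negative values can be read as non-binding.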
# [2] = target: Gal(b1-4)GlcNAc(b1-3)Gal(b1-4)GlcNAc(b1-3)Gal(b1-4)GlcNAc(b1-3)Gal(b1-4)GlcNAc(b1-2)[Gal(b1-4)GlcNAc(b1-3)Gal(b1-4)GlcNAc(b1-3)Gal(b1-4)GlcNAc(b1-3)Gal(b1-4)GlcNAc(b1-6)]Man(a1-6)[Gal(b1-4)GlcNAc(b1-3)Gal(b1-4)GlcNAc(b1-3)Gal(b1-4)GlcNAc(b1-3)Gal(b1-4)GlcNAc(b1-2)Man(a1-3)]Man(b1-4)GlcNAc(b1-4)[Fuc(a1-6)]GlcNAc
# Procedure, shortened: as §1
# [3] = target: Gal(b1-4)GlcNAc(b1-3)Gal(b1-4)GlcNAc(b1-3)Gal(b1-4)GlcNAc(b1-3)Gal(b1-4)GlcNAc(b1-3)Gal(b1-4)GlcNAc(b1-2)Man(a1-3)[Gal(b1-4)GlcNAc(b1-3)Gal(b1-4)GlcNAc(b1-3)Gal(b1-4)GlcNAc(b1-3)Gal(b1-4)GlcNAc(b1-3)Gal(b1-4)GlcNAc(b1-2)Man(a1-6)]Man(b1-4)GlcNAc(b1-4)GlcNAc
# Procedure, shortened: as §1
# [4] = target: Gal(b1-4)GlcNAc(b1-3)Gal(b1-4)GlcNAc(b1-3)Gal(b1-4)GlcNAc(b1-3)Gal(b1-4)GlcNAc(b1-3)Gal(b1-4)GlcNAc(b1-2)Man(a1-3)[Gal(b1-4)GlcNAc(b1-3)Gal(b1-4)GlcNAc(b1-3)Gal(b1-4)GlcNAc(b1-3)Gal(b1-4)GlcNAc(b1-3)Gal(b1-4)GlcNAc(b1-2)Man(a1-6)]Man(b1-4)GlcNAc(b1-4)[Fuc(a1-6)]GlcNAc
# Procedure, shortened: as §1
# [5] = target: Gal(b1-4)GlcNAc(b1-3)Gal(b1-4)GlcNAc(b1-3)Gal(b1-4)GlcNAc(b1-3)Gal(b1-4)GlcNAc(b1-3)Gal(b1-4)GlcNAc(b1-2)[Gal(b1-4)GlcNAc(b1-3)Gal(b1-4)GlcNAc(b1-3)Gal(b1-4)GlcNAc(b1-3)Gal(b1-4)GlcNAc(b1-3)Gal(b1-4)GlcNAc(b1-6)]Man(a1-6)[Gal(b1-4)GlcNAc(b1-3)Gal(b1-4)GlcNAc(b1-3)Gal(b1-4)GlcNAc(b1-3)Gal(b1-4)GlcNAc(b1-3)Gal(b1-4)GlcNAc(b1-2)Man(a1-3)]Man(b1-4)GlcNAc(b1-4)[Fuc(a1-6)]GlcNAc
# Procedure, shortened: as §1
# [6] = target: Gal(b1-4)GlcNAc(b1-3)Gal(b1-4)GlcNAc(b1-3)Gal(b1-4)GlcNAc(b1-3)Gal(b1-4)GlcNAc(b1-3)Gal(b1-4)GlcNAc(b1-3)Gal(b1-4)GlcNAc(b1-2)Man(a1-3)[Gal(b1-4)GlcNAc(b1-3)Gal(b1-4)GlcNAc(b1-3)Gal(b1-4)GlcNAc(b1-3)Gal(b1-4)GlcNAc(b1-3)Gal(b1-4)GlcNAc(b1-3)Gal(b1-4)GlcNAc(b1-2)Man(a1-6)]Man(b1-4)GlcNAc(b1-4)GlcNAc
# Procedure, shortened: as §1
# [7] = target: Gal(b1-4)GlcNAc(b1-3)Gal(b1-4)GlcNAc(b1-3)GalNAc
# Procedure, shortened: as §1
# [8] = target: Gal(b1-4)GlcNAc(b1-3)Gal(b1-4)GlcNAc(b1-3)[Gal(b1-4)GlcNAc(b1-3)Gal(b1-4)GlcNAc(b1-6)]GalNAc
# Procedure, shortened: as §1
# [9] = target: Gal(b1-4)GlcNAc(b1-3)Gal(b1-4)GlcNAc(b1-6)[Gal(b1-3)]GalNAc
# Procedure, shortened: as §1
# [10] = target: Gal(b1-4)GlcNAc(b1-3)Gal(b1-4)[Fuc(a1-3)]GlcNAc(b1-3)Gal(b1-4)[Fuc(a1-3)]GlcNAc
# Procedure, shortened: as §1
# [11] = target: Gal(b1-4)GlcNAc(b1-3)GalNAc
# Procedure, shortened: as §1
# [12] = target: Gal(b1-4)GlcNAc(b1-3)[Fuc(a1-3)GlcNAc(b1-6)]Gal(b1-4)Glc
# Procedure, shortened: as §1
# [13] = target: Gal(b1-4)GlcNAc(b1-3)[Gal(b1-4)GlcNAc(b1-6)]Gal(b1-4)GlcNAc
# Procedure, shortened: as §1
# [14] = target: Gal(b1-4)GlcNAc(b1-3)[GlcNAc(b1-6)]Gal(b1-4)GlcNAc
# Procedure, shortened: as §1
# [15] = target: Gal(b1-4)GlcNAc(b1-6)Gal(b1-4)GlcNAc
# Procedure, shortened: as §1
# [16] = target: Gal(b1-4)GlcNAc(b1-6)GalNAc
# Procedure, shortened: as §1
# [17] = target: Gal(b1-4)GlcNAc(b1-6)[Gal(b1-3)]GalNAc
# Procedure, shortened: as §1
# [18] = target: Gal(b1-4)GlcNAc(b1-6)[Gal(b1-4)GlcNAc(b1-3)]GalNAc
# Procedure, shortened: as §1
# Gal(b1-4)GlcNAc6P = target: Gal(b1-4)GlcNAc6P
# Procedure, shortened: as §1
# Gal(b1-6)Gal = target: Gal(b1-6)Gal
# Procedure, shortened: as §1
# Gal3S(b1-3)GalNAc = target: Gal3S(b1-3)GalNAc
# Procedure, shortened: as §1
# Gal3S(b1-3)GlcNAc = target: Gal3S(b1-3)GlcNAc
# Procedure, shortened: as §1
# [19] = target: Gal3S(b1-3)[Fuc(a1-4)]GlcNAc
# Procedure, shortened: as §1
# Gal3S(b1-4)Glc = target: Gal3S(b1-4)Glc
# Procedure, shortened: as §1
# Gal3S(b1-4)Glc6S = target: Gal3S(b1-4)Glc6S
# Procedure, shortened: as §1
# Gal3S(b1-4)GlcNAc = target: Gal3S(b1-4)GlcNAc
# Procedure, shortened: as §1
# [20] = target: Gal3S(b1-4)[Fuc(a1-3)]Glc6S
# Procedure, shortened: as §1
# [21] = target: Gal3S(b1-4)[Fuc(a1-3)]GlcNAc
# Procedure, shortened: as §1
# [22] = target: Gal3S(b1-4)[Fuc(a1-3)]GlcNAc6S
# Procedure, shortened: as §1
# Gal3S4S(b1-4)GlcNAc = target: Gal3S4S(b1-4)GlcNAc
# Procedure, shortened: as §1
# Gal3S6S(b1-4)GlcNAc = target: Gal3S6S(b1-4)GlcNAc
# Procedure, shortened: as §1
# Gal3S6S(b1-4)GlcNAc6S = target: Gal3S6S(b1-4)GlcNAc6S
# Procedure, shortened: as §1
# Gal4S(b1-4)GlcNAc = target: Gal4S(b1-4)GlcNAc
# Procedure, shortened: as §1
# Gal4S6S(b1-4)GlcNAc = target: Gal4S6S(b1-4)GlcNAc
# Procedure, shortened: as §1
# Gal6P(b1-4)GlcNAc = target: Gal6P(b1-4)GlcNAc
# Procedure, shortened: as §1
# Gal6S(b1-3)GlcNAc = target: Gal6S(b1-3)GlcNAc
# Procedure, shortened: as §1
# Gal6S(b1-3)GlcNAc6S = target: Gal6S(b1-3)GlcNAc6S
# Procedure, shortened: as §1
# Gal6S(b1-4)Glc = target: Gal6S(b1-4)Glc
# Procedure, shortened: as §1
binder,measurement,setting,value
B1,glycan array binding signal (z-score),[1],-0.08
same,glycan array binding signal (z-score),[2],3.01
same,glycan array binding signal (z-score),[3],2.05
same,glycan array binding signal (z-score),[4],0.112
same,glycan array binding signal (z-score),[5],1.75
same,glycan array binding signal (z-score),[6],-0.011
same,glycan array binding signal (z-score),[7],1.52
same,glycan array binding signal (z-score),[8],-0.61
same,glycan array binding signal (z-score),[9],-0.15
same,glycan array binding signal (z-score),[10],-0.017
same,glycan array binding signal (z-score),[11],-0.813
same,glycan array binding signal (z-score),[12],-0.173
same,glycan array binding signal (z-score),[13],0.131
same,glycan array binding signal (z-score),[14],-0.353
same,glycan array binding signal (z-score),[15],-1.15
same,glycan array binding signal (z-score),[16],0.377
same,glycan array binding signal (z-score),[17],-0.21
same,glycan array binding signal (z-score),[18],-0.401
same,glycan array binding signal (z-score),Gal(b1-4)GlcNAc6P,-0.278
same,glycan array binding signal (z-score),Gal(b1-6)Gal,-0.448
same,glycan array binding signal (z-score),Gal3S(b1-3)GalNAc,0.006
same,glycan array binding signal (z-score),Gal3S(b1-3)GlcNAc,0.475
same,glycan array binding signal (z-score),[19],-0.608
same,glycan array binding signal (z-score),Gal3S(b1-4)Glc,-0.825
same,glycan array binding signal (z-score),Gal3S(b1-4)Glc6S,0.221
same,glycan array binding signal (z-score),Gal3S(b1-4)GlcNAc,-0.041
same,glycan array binding signal (z-score),[20],1.91
same,glycan array binding signal (z-score),[21],0.441
same,glycan array binding signal (z-score),[22],1.1
same,glycan array binding signal (z-score),Gal3S4S(b1-4)GlcNAc,0.087
same,glycan array binding signal (z-score),Gal3S6S(b1-4)GlcNAc,2.12
same,glycan array binding signal (z-score),Gal3S6S(b1-4)GlcNAc6S,1.59
same,glycan array binding signal (z-score),Gal4S(b1-4)GlcNAc,-0.285
same,glycan array binding signal (z-score),Gal4S6S(b1-4)GlcNAc,0.149
same,glycan array binding signal (z-score),Gal6P(b1-4)GlcNAc,-0.826
same,glycan array binding signal (z-score),Gal6S(b1-3)GlcNAc,1.39
same,glycan array binding signal (z-score),Gal6S(b1-3)GlcNAc6S,-0.513
same,glycan array binding signal (z-score),Gal6S(b1-4)Glc,-0.148

# Random excerpt: 3 records from the list.
binder,measurement,setting,value
B1,glycan array binding signal (z-score),Gal6S(b1-3)GlcNAc6S,-0.513
same,glycan array binding signal (z-score),[8],-0.61
same,glycan array binding signal (z-score),[17],-0.21
